The values that follow come from article PMC3189933, “Acylpeptide Hydrolase Inhibition as Targeted Strategy to Induce Proteasomal Down-Regulation” (PLoS ONE, 2011).

Results are given in words; binding and its absence hold for the method and conditions named. Some entries that bind do so weakly or less than the wild type.

Test [1] addresses SsCEI 3 (Sulfolobus solfataricus). Description: SEC; 100 µM peptide solutions on a BioSep SEC-S2000 column, 50 mM phosphate buffer pH 6.8, 1.0 mL/min; apparent masses from a calibration curve of synthetic peptides; both purified. For orientation: Size exclusion chromatography separates by hydrodynamic size, large species first.
Test [2] concerns the target T1, Porcine liver acylpeptide hydrolase (porcine) (UniProt P19205).
T1 sequence: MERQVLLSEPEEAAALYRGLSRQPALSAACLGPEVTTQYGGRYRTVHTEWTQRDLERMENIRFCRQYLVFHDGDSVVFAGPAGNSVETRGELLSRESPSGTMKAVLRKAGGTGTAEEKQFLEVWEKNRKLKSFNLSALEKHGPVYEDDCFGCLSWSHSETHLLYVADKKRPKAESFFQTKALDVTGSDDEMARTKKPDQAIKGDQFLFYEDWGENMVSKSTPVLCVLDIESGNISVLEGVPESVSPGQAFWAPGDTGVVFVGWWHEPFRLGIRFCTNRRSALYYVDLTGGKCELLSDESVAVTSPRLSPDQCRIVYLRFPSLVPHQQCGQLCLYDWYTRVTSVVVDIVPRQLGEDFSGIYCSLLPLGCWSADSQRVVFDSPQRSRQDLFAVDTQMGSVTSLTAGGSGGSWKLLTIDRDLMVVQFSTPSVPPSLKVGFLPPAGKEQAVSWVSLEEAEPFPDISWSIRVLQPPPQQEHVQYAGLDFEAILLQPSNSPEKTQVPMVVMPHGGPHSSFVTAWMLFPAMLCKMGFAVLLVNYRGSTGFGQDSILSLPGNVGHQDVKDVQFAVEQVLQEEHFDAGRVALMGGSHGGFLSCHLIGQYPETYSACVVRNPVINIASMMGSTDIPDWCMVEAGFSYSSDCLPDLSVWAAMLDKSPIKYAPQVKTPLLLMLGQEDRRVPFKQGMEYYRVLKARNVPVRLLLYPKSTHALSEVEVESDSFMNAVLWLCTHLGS
Description: enzyme inhibition kinetics; porcine APEH in a reaction mixture with trypsin, α-chymotrypsin, elastase, carboxypeptidase Y, subtilisin and thrombin; data not shown; both purified.

Test [3] has as its target SsCEI 4 (Sulfolobus solfataricus). Nature of the test: SEC; 100 µM peptide solutions on a BioSep SEC-S2000 column, 50 mM phosphate buffer pH 6.8, 1.0 mL/min; apparent masses from a calibration curve of synthetic peptides; both purified.
Test [4] addresses SsCEI 2 (Sulfolobus solfataricus). The test is described as above.

B1: SsCEI 3 (peptide)
peptide: YAIDTILAEIKNINAD
modifications: C-terminal amide; free amino group at the N-terminus (not acetylated)
On to B1, for which the binding result in test [1] is reported as “no binding (tested: 100 µM)”.

B2: SsCEI 4 (peptide)
peptide: TILAEIKNINAD
modifications: C-terminal amide; free amino group at the N-terminus (not acetylated)
As for B2, the binding result in test [2] is on record as “binds”; in test [3], “no binding (tested: 100 µM)”.

B3: SsCEI 2 (peptide)
peptide: TILLEIKNINAD
modifications: C-terminal amide; free amino group at the N-terminus (not acetylated)
Turning to B3, the binding entry in test [4] was “no binding (tested: 100 µM)”.
